## Assay results

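A cell-based FRET test of anthrax lethal toxin entry, tracked through the 460 nm emission signal; the cell line is not named here. Each compound was tested as a concentration series from about 0.0005 to 40 µM. The number is the fitted AC50 of the 460 nm signal alone; lower values mean a more potent effect. A falling signal goes with compounds filed as inhibitors or cytotoxic, a rising one with activators or fluorescent compounds (inferred from the filed classes).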

Values are in µM. Common to all entries: measured here: 460 nm channel. This is a side read-out of the assay, for part of the compounds, not drawn at random. A potency from a partial, single-point or poor curve is only a rough figure. The first word of each remark tells which way the curve ran; it can be opposite to the aim of the assay.

| # | compound | AC50 (µM) | curve |
|---|---|---|---|
| 1 | `CCCc1ccc(OCc2ccc(C(=O)N3CCN(c4ccccn4)CC3)o2)c(OC)c1` | 31.62 | falling, single point |
| 2 | `CCn1c(C(=O)NC(C)c2ccc3c(c2)OCCO3)cc2sccc21` (stereo not given) | 12.59 | falling, single point |
| 3 | `CC(OC(=O)c1ccccc1NCc1ccco1)C(=O)Nc1ncc(Cl)cc1Cl` (stereo not given) | 3.162 | falling, partial curve, poor fit |
| 4 | `Nc1ccc2c(C(F)(F)F)cc(=O)oc2c1` | 15.85 | rising, partial curve |
| 5 | `Cc1cccc(-c2nnc3sc(-c4ccccc4C)nn23)c1` | 10 | falling, partial curve |
| 6 | `COc1ccccc1CNc1nc(-c2cccnc2)nc2ccccc12` | 31.62 | falling, single point |
| 7 | `O=c1cc(-c2ccccc2)c2c([nH]1)CCCC2` | 31.62 | rising, partial curve, poor fit |
| 8 | `COc1cccc(-c2cc(C(F)(F)F)nc(NCc3ccco3)n2)c1` | 12.59 | falling, partial curve |
| 9 | `COCc1nnc(SCC(=O)NCc2ccccc2)n1-c1ccccc1` | 5.012 | rising, single point |
| 10 | `O=C(NCCC1=CCCCC1)c1ccc2c(=O)n3c(nc2c1)CCCCC3` | 10 | falling, partial curve |
| 11 | `O=C(Cn1c(-c2ccccc2)noc1=O)Nc1ccc(N2CCCCCC2)cc1` | 19.95 | falling, single point |
| 12 | `CCOC(=O)CNC(=O)CSc1nnc(-c2ccccc2)n1Cc1ccco1` | 0.7943 | rising, partial curve |
| 13 | `Cc1noc(/C=C/NCc2cccnc2)c1S(=O)(=O)N(C)CC(=O)N1CCc2ccccc21` | 31.62 | falling, single point |
| 14 | `CC(C)(C)NC(=O)c1ccccc1-c1nc(-c2ccccc2Cl)no1` | 0.03162 | rising, full curve, poor fit |
| 15 | `CCCn1nnc(NC(=O)COc2ccc(C3CCCCC3)cc2)n1` | 10 | falling, partial curve |
| 16 | `CCCCNc1c(C(=O)OCC)c(C)nc2c1cnn2CC` | 25.12 | falling, partial curve |
| 17 | `CCOc1ccc2c(O)csc2c1` | 12.59 | falling, single point |
| 18 | `Cn1cc(-c2nc3cnc(N4CCNCC4)nc3n(C3CC3)c2=O)c2ccccc21` | 2.512 | rising, full curve |
| 19 | `O=C(CSc1n[nH]c(-c2ccccc2O)n1)N1CCCc2ccccc21` | 15.85 | falling, single point |
| 20 | `CCCS(=O)(=O)c1nnnn1-c1cccc(OC)c1` | 5.012 | falling, full curve |
| 21 | `O=C(Nc1ccc(S(=O)(=O)N2CCCc3ccccc32)cc1)C1CCCO1` (stereo not given) | 6.31 | rising, partial curve |
| 22 | `COc1ccc(C2CC(=O)N3CN(c4ccc(C)c(Cl)c4)CSC3=C2C#N)cc1OC` (stereo not given) | 15.85 | falling, partial curve |
| 23 | `O=C1CC(c2ccco2)CC2=C1C1c3ccccc3C(=O)N1c1ccccc1N2` (stereo not given) | 2.512 | rising, single point |
| 24 | `Cn1c(=O)c(-c2cccs2)nc2cncnc21` | 12.59 | rising, partial curve |
| 25 | `CN(C)C(=O)Nc1cccc(C(F)(F)F)c1` | 31.62 | falling, single point |
| 26 | `COc1cc(Cc2cnc(N)nc2N)cc(OC)c1OC` | 12.59 | falling, single point |
| 27 | `O=C1c2ccccc2-c2cc([N+](=O)[O-])c([N+](=O)[O-])cc21` | 5.012 | falling, single point |
| 28 | `COCCn1c(N)c(S(=O)(=O)c2cccs2)c2nc3ccccc3nc21` | 5.012 | rising, single point |
| 29 | `CN(C)CCCN1CCC2(CCC(C(C)(C)C)CC2)CC1` | 3.162 | falling, single point |
| 30 | `COc1ccc(-c2ccc(-c3noc(C)n3)c(OC)n2)cc1` | 0.01995 | falling, full curve, poor fit |
| 31 | `N#CCCn1c(=O)c(-c2ccccc2)nc2cnc(Oc3ccccc3)nc21` | 12.59 | rising, partial curve |
| 32 | `NP(N)(=O)NC(=O)c1ccc(F)cc1` | 0.3162 | rising, full curve, poor fit |
| 33 | `COc1ccccc1CNC(=O)c1cc2sccc2n1C` | 12.59 | falling, partial curve |
| 34 | `CC(=O)c1c(COC(=O)c2ccco2)nc2ccccc2[n+]1[O-]` | 0.003981 | falling, full curve, poor fit |
| 35 | `Cc1cc(C)c2cc(CN(Cc3ccc4c(c3)OCO4)Cc3nnnn3Cc3ccco3)c(=O)[nH]c2c1` | 3.981 | falling, full curve, poor fit |
| 36 | `Cc1ccc(-c2nc3ccccc3[nH]2)cc1NC(=O)c1ccco1` | 5.012 | rising, partial curve |
| 37 | `CCN1CCCC1CNC(=O)c1c(O)c2c([nH]c1=O)CCCC2` (stereo not given) | 0.003162 | falling, full curve, poor fit |
| 38 | `COC(=O)c1cc(S(=O)(=O)N2CCC(C)CC2)ccc1F` | 7.943 | rising, partial curve |
| 39 | `COc1ccc2oc(-c3ccccc3)c(C(=O)N3CCOCC3)c2c1` | 0.05012 | falling, full curve, poor fit |
| 40 | `CCNc1ncc2nc(-c3cccs3)c(=O)n(C)c2n1` | 3.162 | rising, partial curve |
| 41 | `CN1CCC[C@@H]1CCO[C@](C)(c1ccccc1)c1ccc(Cl)cc1` | 12.59 | falling, full curve |
| 42 | `O=C(NCC(=O)N(c1ccc2c(c1)OCCO2)C(C(=O)NC1CCCC1)c1ccco1)c1ccco1` (stereo not given) | 5.012 | rising, single point |
| 43 | `N#Cc1nc(COc2ccc(Cl)cc2)oc1NCc1ccc2c(c1)OCO2` | 10 | falling, partial curve |
| 44 | `COc1cc(SC)ccc1C(=O)Nc1ccc2c(c1)OCCO2` | 12.59 | falling, partial curve |
| 45 | `CCCCN(C(=O)NC(=O)C1=C(N2CCOCC2)/C(=C/c2ccccc2)CC1)S(C)(=O)=O` | 15.85 | rising, single point |
| 46 | `c1ccc(-n2nnnc2SCCCSc2nc3ccccc3s2)cc1` | 10 | falling, single point |
| 47 | `COc1ccc(C2CC(c3c(Cl)cccc3Cl)n3nc(N)nc3N2)cc1` (stereo not given) | 12.59 | rising, single point |
| 48 | `COc1ccc(-c2csc(N3CCN(C(=O)c4ccco4)CC3)n2)cc1` | 7.943 | falling, partial curve |
| 49 | `N#Cc1cccc(-c2cncnc2NCc2cccnc2)c1` | 12.59 | falling, single point |
| 50 | `CCOC(=O)CNc1c(-c2ccc(O)cc2)nc2ccccn12` | 6.31 | rising, partial curve |

Repeated from the top, 6 entries:

compound,AC50 (µM),curve
CCCc1ccc(OCc2ccc(C(=O)N3CCN(c4ccccn4)CC3)o2)c(OC)c1,31.62,"falling, single point"
CCn1c(C(=O)NC(C)c2ccc3c(c2)OCCO3)cc2sccc21 (stereo not given),12.59,"falling, single point"
CC(OC(=O)c1ccccc1NCc1ccco1)C(=O)Nc1ncc(Cl)cc1Cl (stereo not given),3.162,"falling, partial curve, poor fit"
Nc1ccc2c(C(F)(F)F)cc(=O)oc2c1,15.85,"rising, partial curve"
Cc1cccc(-c2nnc3sc(-c4ccccc4C)nn23)c1,10,"falling, partial curve"
COc1ccccc1CNc1nc(-c2cccnc2)nc2ccccc12,31.62,"falling, single point"

From PubChem BioAssay record AID912 (NCATS, 2007).